Test results published in PubChem BioAssay AID504775 (Broad Institute, 2011).
The whole screen tested about 320,000 compounds, of which about 310 (0.097%) were called active. The shares of active, inactive and inconclusive entries below differ from those in the screen.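 How the source made its calls: active means mean replicate activation of at least 60% and every replicate at or above 60%; inconclusive means mean or all-replicate condition met, but not both; inactive means mean below 60% and not all replicates reaching 60%.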

Assay: enhancers of HDL lipid transfer via mSR-BI – ldlA[mSR-BI] CHO cells, DiI fluorescence, primary screen (AID 504775);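 further: 0% = median plate neutral-control signal and 100% = twice that signal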
Conditions: DiI-HDL uptake fluorescence, 3 h, at 12.5 µM, stronger effect = higher value, 100 = double the neutral-control signal
Procedure, shortened: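 System: LDL receptor-deficient CHO ldlA cells overexpressing murine SR-BI | Timing: 3 h uptake period with compound, 37 °C | Medium: HEPES-buffered (25 mM, pH 7.4) F12 plus 0.5% BSA | Dosing: Single-point compound dose | Signal: Bottom-read fluorescence, 550/595 nm | Read-out: Retained DiI signal reflecting DiI-HDL uptake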

**Q.** Which activation does the source give for `CC(C)c1nc(CNC(=O)C2CCC(=O)N(Cc3ccc(Cl)cc3)C2)no1` (configuration not stated) here?
**A.** inconclusive: 123%

**Q.** With `COc1ccccc1N(CC(=O)Nc1ccc(F)c(F)c1)S(C)(=O)=O` as the molecule, how does the activation read?
**A.** inconclusive: 381%

**Q.** With `CCCCC1(C)NC(=O)N(CC(=O)Nc2ccc(S(=O)(=O)N3CCOCC3)cc2)C1=O` (configuration not stated) as the molecule, how does the activation read?
**A.** inconclusive: 60.2%

**Q.** With `O=C(OCCCc1cc2ccccc2c(=O)o1)c1ccc(F)cc1` as the molecule, how does the activation read?
**A.** inconclusive: 88.1%

**Q.** With `Oc1ccc(-c2nccs2)cc1` as the molecule, how does the activation read?
**A.** active: 73.3%

**Q.** With `O=c1cc(N2CCOCC2)[nH]c(=O)n1Cc1ccc(F)cc1` as the molecule, how does the activation read?
**A.** active: 231%

**Q.** Which activation does the source give for `O=C(NC(=S)Nc1ccc(-c2ccccc2)cc1)c1ccccc1` here?
**A.** inconclusive: 137%

**Q.** For `NNC(=O)C1CC(O)CN1S(=O)(=O)c1ccc(Cl)cc1` (configuration not stated), which activation is on record?
**A.** inconclusive: 157%

**Q.** With `COc1ccc(C(C)(C)C)cc1S(=O)(=O)NCC1CCCO1` (configuration not stated) as the molecule, how does the activation read?
**A.** inconclusive: 70.6%

**Q.** Which activation does the source give for `O=[N+]([O-])c1cccnc1N1CCN(c2ccc(F)cc2)CC1` here?
**A.** inconclusive: 116%

**Q.** Which activation does the source give for `O=C(O)c1cc2ccccc2c(N=Nc2cccnc2)c1O` here?
**A.** inactive: 7.32%

**Q.** With `COc1ccc(/C=C2\C(=O)ON=C2c2ccccc2)cc1OC` as the molecule, how does the activation read?
**A.** inconclusive: 231%

**Q.** With `C=CCN(CC=C)C(=S)NC(=O)c1ccc(-c2ccccc2)cc1` as the molecule, how does the activation read?
**A.** inactive: 8.04%

**Q.** With `COC(=O)c1cc(S(=O)(=O)N2CCCCCC2)cn1C` as the molecule, how does the activation read?
**A.** inactive: -6.37%

**Q.** For `CCOc1ccc(C(C(=O)NC2CCCC2)N(C(=O)CNC(=O)c2ccco2)c2cccnc2)cc1` (configuration not stated), which activation is on record?
**A.** inconclusive: 186%

**Q.** For `Cc1cc(/C=C\c2ccc3cc(N(C)C)ccc3[n+]2C)c(C)n1-c1ccccc1`, which activation is on record?
**A.** active: 166%

**Q.** For `O=C(c1ccccc1F)N1CCCC(C(=O)N2CCc3ccccc3C2)C1` (configuration not stated), which activation is on record?
**A.** inconclusive: 88.9%

**Q.** With `O=c1c(Cc2ccccc2)c(O)nc2n1CCCS2` as the molecule, how does the activation read?
**A.** inconclusive: 86.9%

**Q.** Which activation does the source give for `Nn1c(SCc2ccc(F)cc2)nnc1-c1cccnc1` here?
**A.** inconclusive: 252%

**Q.** With `CCCCCCn1c(N2CCN(c3ccccc3)CC2)nc2c1c(=O)n(C)c(=O)n2C` as the molecule, how does the activation read?
**A.** inconclusive: 131%

**Q.** For `O=[N+]([O-])c1ccc(NC2CCCCC2)nc1`, which activation is on record?
**A.** inconclusive: 307%

**Q.** For `Fc1ccc(CNc2ccc(N3CCN(Cc4ccccc4)CC3)cc2)cc1`, which activation is on record?
**A.** inconclusive: 268%

**Q.** With `CCN1C(=O)N/C(=C/c2cc(C)n(Cc3ccccc3)c2C)C1=O` as the molecule, how does the activation read?
**A.** inactive: -24.8%

**Q.** For `CC(C)NCCCCOc1cccc(Br)c1`, which activation is on record?
**A.** inactive: -2.54%

**Q.** With `CC(=O)N1c2ccc(S(=O)(=O)N3CCCC3)cc2CC1C(=O)Nc1cc(C)cc(C)c1` (configuration not stated) as the molecule, how does the activation read?
**A.** inactive: 3.38%

**Q.** With `NC(=O)NCCC1=CCCCC1` as the molecule, how does the activation read?
**A.** active: 93.5%

**Q.** With `CCCCCc1cc(=O)oc2c(C(CCN3CCCCC3)c3cc(OC)c(OC)c(OC)c3)c(OC)cc(OC)c12` (configuration not stated) as the molecule, how does the activation read?
**A.** active: 62%

**Q.** For `CCC(CC)C(=O)Nc1cccc(/C(C)=N\NC(=O)c2ccc(C)s2)c1`, which activation is on record?
**A.** inactive: -15.8%

**Q.** For `CCN(CC)CCn1c(SCC(=O)NCc2ccco2)nc2c(sc3ccccc32)c1=O`, which activation is on record?
**A.** inconclusive: 488%

**Q.** With `CN(C)c1ccc(/C=C/c2ccc3c4ccccc4ccc3[n+]2-c2ccccc2)cc1` as the molecule, how does the activation read?
**A.** inconclusive: 61.8%

**Q.** With `CN(c1cccc(NC(=O)CN(c2ccc(C34CC5CC(CC(C5)C3)C4)cc2)S(C)(=O)=O)c1)S(C)(=O)=O` as the molecule, how does the activation read?
**A.** active: 76.4%

**Q.** For `CCN(CC)C(=O)c1cc2c(=O)n3cccc(C)c3nc2s1`, which activation is on record?
**A.** inconclusive: 63.1%

**Q.** For `CCOC(=O)c1c(C2CC2)csc1NC(=O)COC(=O)c1ccc[n+]([O-])c1`, which activation is on record?
**A.** inconclusive: 63.1%

**Q.** With `Cc1ccc(CNC(=O)CCCc2cn(C)c3ccccc23)cc1` as the molecule, how does the activation read?
**A.** inactive: 14.2%

**Q.** With `CC1(C)NC(=O)N(CC(=O)OCC(=O)c2ccc(F)cc2)C1=O` as the molecule, how does the activation read?
**A.** active: 152%

**Q.** For `Cn1c(=O)n(C)c2cc([N+](=O)[O-])c(N3CCN(C(=O)c4ccccc4Cl)CC3)cc21`, which activation is on record?
**A.** inconclusive: 285%

**Q.** With `COc1cccc(CNc2ccc3[nH]c(=O)[nH]c3c2)c1OCc1ccccc1Cl` as the molecule, how does the activation read?
**A.** inconclusive: 213%

**Q.** For `Cc1occc1C(=O)NNC(=O)NC12CC3CC(CC(C3)C1)C2`, which activation is on record?
**A.** inconclusive: 255%

**Q.** With `OCCCNc1ncnc2scc(-c3ccc(Cl)cc3)c12` as the molecule, how does the activation read?
**A.** inactive: -17.9%

**Q.** Which activation does the source give for `COCCCNC(=O)c1ccc(Cn2c(=O)c3ccccc3n(CC(=O)NCCc3ccc(OC)c(OC)c3)c2=O)cc1` here?
**A.** inactive: -80.8%

**Q.** Which activation does the source give for `CCOC(=O)C1CCN(C(=O)/C=C/c2ccc(S(=O)(=O)N3CCOCC3)cc2)CC1` here?
**A.** active: 63.5%

**Q.** For `CS(=O)(=O)NCCCNc1c(Cl)cccc1[N+](=O)[O-]`, which activation is on record?
**A.** inconclusive: 63%

**Q.** For `CC(C)c1ccc(C(O)c2nc3ccccc3n2C)cc1` (configuration not stated), which activation is on record?
**A.** inconclusive: 61.3%

**Q.** For `CCN(CC)CCOC(=O)c1c(C)n(C)c2ccc(OC)cc12`, which activation is on record?
**A.** inconclusive: 61.2%

**Q.** Which activation does the source give for `CCCCCCCOC(=O)C[N+](C)(C)CCOC1CC2CCC1(C)C2(C)C` (configuration not stated) here?
**A.** active: 68.8%

**Q.** Which activation does the source give for `COc1ccc(CN2C(=O)c3ccccc3C2=O)cc1C(=O)O` here?
**A.** inconclusive: 63.5%

**Q.** Which activation does the source give for `COC(=O)c1[nH]c2ccc(Cl)cc2c1NC(=O)CCN1CCN(C2CCCCC2)CC1` here?
**A.** inconclusive: 104%

**Q.** Which activation does the source give for `CC(C)C[C@@H](CN1CCCC1CN1C(=S)NC[C@@H]1Cc1ccc(O)cc1)N1C[C@H](Cc2ccc(O)cc2)N(CC2CCCCC2)C1=S` (some centres not stated) here?
**A.** active: 76.1%

**Q.** Which activation does the source give for `CCOc1cc(C2C(C(=O)N3CCCCC3)=C(C)NC3=C2C(=O)CC(C)(C)C3)ccc1O` (configuration not stated) here?
**A.** inactive: 28%

**Q.** Which activation does the source give for `CC(=O)Nc1ccc(N(CC(O)Cn2c3ccccc3c3ccccc32)S(=O)(=O)c2ccc(C)cc2)cc1` (configuration not stated) here?
**A.** inactive: 8%

**Q.** Which activation does the source give for `O=C(COC(=O)CCc1ccccc1)Nc1ccccc1OC(F)F` here?
**A.** inconclusive: 74.7%

**Q.** With `C/C(CC(=O)Nc1ccc2c(c1)OCO2)=N\NC(=O)c1ccc(N)cc1` as the molecule, how does the activation read?
**A.** inactive: -8.11%

**Q.** Which activation does the source give for `CC(=O)Nc1ccc(S(=O)(=O)NNC(=O)COc2ccc(Cl)cc2Cl)cc1` here?
**A.** inconclusive: 202%

**Q.** Which activation does the source give for `Cc1ccc(OCC(=O)Nc2ccc3c(c2)nc(CCN2CCN(C)CC2)n3C)cc1` here?
**A.** inconclusive: 142%

**Q.** With `COc1ccc(OC)c(S(=O)(=O)NCCCN2CCOCC2)c1` as the molecule, how does the activation read?
**A.** inconclusive: 179%

**Q.** For `Cc1ccc(-c2cc(C(=O)NCc3ccco3)c3ccccc3n2)s1`, which activation is on record?
**A.** inactive: -24.2%

**Q.** Which activation does the source give for `Cc1ccc2[nH]c(=O)c(C(c3nnnn3C3CCCC3)N3CCCc4ccccc43)cc2c1` (configuration not stated) here?
**A.** inconclusive: 77.7%
